Results as given in PubChem BioAssay AID602475 (National Center for Advancing Translational Sciences (NCATS), 2012).
Inconclusive means that the source gave no clear call. Such entries were picked first, then a sample of the others. Potencies beside an inconclusive call are fits to weak or partial responses and may not hold up. Activity calls are given as the source filed them. Calls come from the whole dose curve; as a rule, active = well fitted inhibition curve with a large enough effect; inconclusive = small, poorly fitted or top-dose-only effect; inactive = no such curve, though single readings can be large or run the other way.

The chains behind the UniProt entries cited, without tags or fusion partners.
UniProt P08659, whole entry, looked up: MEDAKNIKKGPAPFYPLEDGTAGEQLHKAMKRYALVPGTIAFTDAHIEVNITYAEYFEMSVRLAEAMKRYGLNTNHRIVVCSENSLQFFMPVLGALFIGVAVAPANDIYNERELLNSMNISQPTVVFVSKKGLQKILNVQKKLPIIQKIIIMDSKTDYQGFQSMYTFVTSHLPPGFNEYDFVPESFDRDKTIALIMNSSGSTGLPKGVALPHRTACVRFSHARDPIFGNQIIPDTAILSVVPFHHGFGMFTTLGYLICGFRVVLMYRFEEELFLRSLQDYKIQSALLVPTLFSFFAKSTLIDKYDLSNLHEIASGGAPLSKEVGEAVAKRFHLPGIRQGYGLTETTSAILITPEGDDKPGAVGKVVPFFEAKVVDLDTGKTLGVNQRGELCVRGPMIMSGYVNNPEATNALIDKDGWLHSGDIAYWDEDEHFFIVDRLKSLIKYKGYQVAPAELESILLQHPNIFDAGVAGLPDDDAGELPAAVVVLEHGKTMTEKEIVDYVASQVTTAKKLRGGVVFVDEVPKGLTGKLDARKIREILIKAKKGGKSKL

Each compound was assayed against Luciferin 4-monooxygenase (Photinus pyralis) (UniProt P08659) (assay: FLuc inhibitory activity for the follow-up compounds in a biochemical assay with an in-house formulation of detection reagent). Conditions: purified FLuc, luminescence; series mostly up to 25.6 µM; activity change, negative = inhibition: at the top concentration.
Source text: NCGC Assay Overview: Firefly (Photinus pyralis) luciferase is one of the most commonly used transcriptional reporters. It is considered one of the more dynamically responsive reporters - that is, responsive to changes in reporter transcription - as it requires no post-translational modifications and is enzymatically active directly after protein synthesis (Wood, 1998). With no endogenous expression in mammalian cells and without the requirement of external excitation, it offers very little background signal, thus generally providing excellent signal to background for most assays. Previous profiling work to determine the prevalence of compounds that affect FLuc enzymatic activity (PubChem AID 411) identified that ~3% of the MLSMR library (then at ~72K) inhibited FLuc (Auld et al., 2008). […] Of the compounds identified in this profile that inhibited FLuc, 151 compounds were selected for further analysis, in an effort to better understand their mode of inhibiting FLuc. The assay described here was to determine the activity of the compounds in a FLuc assay that used an in-house formulation of detection reagent.
NCGC Assay Protocol Summary: Reagents: 300mM Tris-HCl, 300mM Trizma base, 300mM MgCl, 1% Triton-X100, 5mM DTT, 500uM Coenzyme A trilithium salt (Sigma #C3019),450uM ATP (Sigma #A7699), 1mM D-luciferin sodium salt monohydrate (Biosynth #L8240); 10nM P. pyralis luciferase (Sigma #L9506) Control compounds used were two known firefly luciferase inhibitors (3-(5-(3-chlorophenyl)-1,2,4-oxadiazol-3-yl)benzoic acid and 5-(2-fluorophenyl)-3-phenyl-1,2,4-oxadiazole), and DMSO. Assay Summary: Six microliters of buffer containing firefly luciferase (final concentrations: 50mM Tris acetate, 10nM P. pyralis luciferase) are dispensed into each well of a Greiner white, solid-bottom 1536-well format plate using a flying reagent dispenser (FRD). These assay plates were then treated with 23nL of compound or DMSO using a Kalypsys pin tool, which allows for delivery of a 12-point intraplate titration of each compound to the assay plate (quantitative HTS), with final compound concentrations ranging from approximately ~25uM to 0.1nM. Three microliters of 3X in-house detection reagent was then delivered by FRD to each well (final concentrations in assay: 300mM Tris-HCl, 300mM Trizma base, 300mM MgCl, 1% Triton-X100, 5mM DTT, 500uM Coenzyme A trilithium salt, 450uM ATP, 1mM D-luciferin sodium salt monohydrate). Luciferase activity was then measured using a ViewLux CCD imager (PerkinElmer), with an average exposure time of 2-30 seconds (2X binning, medium/high gain).

Q: Which “activity change, negative = inhibition” value does the source give for `COc1ccc(C(=O)Nc2cccc(C(=O)O)c2)cc1S(=O)(=O)N1CCCC1` here?
A: inactive: -14%

Q: `Cc1ccc(C(=O)Nc2ccccc2C(=O)O)cc1S(=O)(=O)N1CCCCCC1` was tested. Which Potency did it give?
A: inconclusive: 6.94 µM [inhibitor, partial curve]

Q: `COc1ccc(-c2nc3ccccc3s2)cc1NC(=O)c1ccc(F)cc1` was tested. Which Potency did it give?
A: inconclusive: 19.6 µM [inhibitor, partial curve, poor fit]

Q: `CCCC(=O)Nc1nc2ccc(OCC)cc2s1` was tested. Which “activity change, negative = inhibition” value did it give?
A: inactive: -37.4%

Q: How did the Potency turn out when `CC(C)c1ccc(C(=O)Nc2ccc(-c3nc4ccccc4s3)c(Cl)c2)cc1` was run?
A: inconclusive: 5.51 µM [inhibitor, partial curve]

Q: How did the Potency turn out when `CC(=O)Nc1cccc(C(=O)Nc2ccccc2C(=O)O)c1` was run?
A: inconclusive: 8.74 µM [inhibitor, partial curve, poor fit]

Q: Which “activity change, negative = inhibition” value does the source give for `O=C(Nc1ccccc1-c1nc2ccccc2s1)c1cccnc1` here?
A: inactive: -17.1%

Q: For `CCOc1ccc2nc(NC(=O)c3cc([N+](=O)[O-])ccc3N3CCOCC3)sc2c1`, which Potency is on record?
A: inconclusive: 0.39 µM [inhibitor, partial curve, poor fit]

Q: Which “activity change, negative = inhibition” value does the source give for `O=C(Nc1ccccc1C(=O)O)c1cccc(NC(=O)c2ccccc2Cl)c1` here?
A: inactive: -26.1%

Q: For `O=C(Nc1ccc(Cl)cc1-c1nc2ccccc2s1)c1ccco1`, which Potency is on record?
A: inconclusive: 19.6 µM [inhibitor, partial curve, poor fit]

Q: With `O=C(Nc1cccc(-c2nc3ccccc3s2)c1)C1=COCCO1` as the compound, how does the Potency read?
A: inconclusive: 0.694 µM [inhibitor, partial curve, poor fit]

Q: Which Potency does the source give for `O=S(=O)(c1ccc(-c2nc3ccccc3s2)cc1)N1CCCC1` here?
A: inconclusive: 11 µM [inhibitor, partial curve]

Q: `CC(C)CC(=O)Nc1cccc(C(=O)Nc2ccccc2C(=O)O)c1` was tested. Which Potency did it give?
A: inconclusive: 6.19 µM [inhibitor, partial curve, poor fit]

Q: Which “activity change, negative = inhibition” value does the source give for `O=C(O)c1ccc(NC(=O)c2ccccc2NC(=O)c2cccc(Br)c2)cc1` here?
A: inactive: -13.3%

Q: For `NC(=O)Cc1ccc2sc(-c3ccccc3)nc2c1`, which Potency is on record?
A: inconclusive: 6.19 µM [inhibitor, partial curve]

Q: For `COc1ccc(C(=O)Nc2nc3ccc(OC)cc3s2)cc1`, which “activity change, negative = inhibition” value is on record?
A: inactive: -5.76%

Q: For `COc1ccc(CC(=O)Nc2ccc(-c3nc4ccccc4s3)c(C)c2)cc1`, which Potency is on record?
A: active: 11 µM

Q: Which Potency does the source give for `Cc1ccc2sc(-c3ccc(N)cc3)nc2c1` here?
A: active: 6.19 µM

Q: How did the “activity change, negative = inhibition” value turn out when `O=C(O)c1ccc(NC(=O)c2ccccc2NC(=O)c2ccccc2Br)cc1` was run?
A: inactive: -14%

Q: With `O=C(O)c1ccc(NC(=O)c2cccc(NC(=O)c3cccs3)c2)cc1` as the compound, how does the Potency read?
A: inconclusive: 2.76 µM [inhibitor, partial curve, poor fit]

Q: Which “activity change, negative = inhibition” value does the source give for `Nc1ccccc1-c1nc2ccccc2s1` here?
A: inactive: -13.3%

Q: How did the Potency turn out when `Nc1cccc(-c2nc3ccc(N)cc3s2)c1` was run?
A: active: 3.9 µM

Q: With `COc1ccccc1C(=O)Nc1ccc(C(=O)O)cc1` as the compound, how does the “activity change, negative = inhibition” value read?
A: inactive: -16.7%

Q: Which “activity change, negative = inhibition” value does the source give for `O=C(Nc1ccccc1C(=O)O)c1ccc(NC(=O)C2CCCCC2)cc1` here?
A: inactive: 3.23%

Q: With `O=C(Nc1c(Cl)cc(Cl)cc1-c1nc2ccccc2s1)c1ccc(Br)o1` as the compound, how does the Potency read?
A: active: 13.8 µM

Q: `CCc1noc(C)c1C(=O)Nc1nc2ccc(OC)cc2s1` was tested. Which “activity change, negative = inhibition” value did it give?
A: inactive: -15.2%

Q: How did the Potency turn out when `CCOc1ccc2nc(NC(=O)c3ccoc3C)sc2c1` was run?
A: active: 4.91 µM

Q: Which “activity change, negative = inhibition” value does the source give for `Cc1ccc(C(=O)Nc2ccc(C(=O)O)cc2)cc1S(=O)(=O)Nc1ccccc1` here?
A: inactive: -13.9%

Q: Which Potency does the source give for `COc1ccc(C(=O)Nc2ccccc2-c2nc3ccccc3s2)c(OC)c1` here?
A: inconclusive: 15.5 µM [inhibitor, partial curve]

Q: For `O=C(Cc1ccccc1)Nc1ccc(C(=O)Nc2ccccc2C(=O)O)cc1`, which Potency is on record?
A: inconclusive: 17.4 µM [inhibitor, partial curve, poor fit]

Q: For `Nc1ccc(-c2nc3ccc(N)cc3s2)cc1`, which Potency is on record?
A: active: 4.91 µM

Q: With `CCOc1ccc2nc(NC(=O)c3cccnc3)sc2c1` as the compound, how does the Potency read?
A: inconclusive: 7.79 µM [inhibitor, partial curve]

Q: How did the “activity change, negative = inhibition” value turn out when `Cc1cccc(C(=O)Nc2ccccc2C(=O)Nc2ccc(C(=O)O)cc2)c1` was run?
A: inactive: -43.7%

Q: For `O=C(Nc1ccccc1C(=O)O)c1ccc(NC(=O)C2CCCO2)cc1` (stereo not given), which Potency is on record?
A: inconclusive: 5.51 µM [inhibitor, partial curve, poor fit]

Q: For `O=C(O)c1cccc(NC(=O)c2cccc(S(=O)(=O)N3CCc4ccccc43)c2)c1`, which “activity change, negative = inhibition” value is on record?
A: inactive: -6.28%

Q: How did the Potency turn out when `CCOc1ccc2nc(NC(=O)c3ccccn3)sc2c1` was run?
A: active: 3.9 µM

Q: With `CCCOc1cccc(C(=O)Nc2ccc(-c3nc4ccccc4s3)c(Cl)c2)c1` as the compound, how does the Potency read?
A: inconclusive: 4.91 µM [inhibitor, full curve]

Q: Which Potency does the source give for `Nc1ccc(C(=O)Nc2ccccc2C(=O)O)cc1` here?
A: inconclusive: 13.8 µM [inhibitor, partial curve]

Q: With `CC(=O)Oc1ccc(C(=O)Nc2ccccc2C(=O)Nc2cccc(C(=O)O)c2)cc1` as the compound, how does the “activity change, negative = inhibition” value read?
A: inactive: -11.8%

Q: How did the Potency turn out when `CC(C)C(=O)Nc1cccc(C(=O)Nc2ccccc2C(=O)O)c1` was run?
A: inconclusive: 15.5 µM [inhibitor, single point]
